# Assay results taken from PubChem BioAssay (NCATS).
# By UniProt entry, the sequences of proteins in these tests, tags left out. Where a name states a change or a piece, a line headed by the entry shows the natural chain unless it says otherwise.
# UniProt P40261: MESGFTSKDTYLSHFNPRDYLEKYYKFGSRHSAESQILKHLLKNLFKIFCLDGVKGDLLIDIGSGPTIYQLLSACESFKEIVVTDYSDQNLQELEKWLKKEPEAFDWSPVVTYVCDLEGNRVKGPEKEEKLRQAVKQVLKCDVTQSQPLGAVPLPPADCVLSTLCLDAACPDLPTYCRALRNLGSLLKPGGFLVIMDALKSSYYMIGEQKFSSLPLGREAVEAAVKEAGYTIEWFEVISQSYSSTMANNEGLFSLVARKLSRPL
# UniProt P11086: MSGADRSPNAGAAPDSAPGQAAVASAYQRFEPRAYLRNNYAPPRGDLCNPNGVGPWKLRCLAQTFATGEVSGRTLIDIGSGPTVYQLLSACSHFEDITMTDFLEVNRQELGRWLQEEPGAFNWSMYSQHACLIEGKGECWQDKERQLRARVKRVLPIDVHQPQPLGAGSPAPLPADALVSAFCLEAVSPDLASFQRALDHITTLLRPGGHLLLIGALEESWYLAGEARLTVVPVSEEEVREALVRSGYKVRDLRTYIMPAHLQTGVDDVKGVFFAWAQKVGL
# Where “and” joins values, the source holds several entries; their conditions need not be identical. Identical values can stand only once. This is one part of the list. Further columns of the screen follow, without active or inactive calls. For some assays here: Most of these compounds were active or inconclusive in the main read-out, so they are no random draw. For some assays here: Words in brackets tell the shape of the fitted curve; partial curves, single points and poor fits give uncertain potencies.
# What was measured:
# [1] = NCATS anti-infectives library activity on the primary C. elegans qHTS viability assay (AID 1745855); conditions: C. elegans worm area imaging
# In short: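 Viability is taken from GFP fluorescence of PE254-GFP-FLuc C. elegans imaged by laser cytometry over 7 days. Ten L1 worms per well grow at 21 °C on TOP10 E. coli capsules with titrated compound; levamisole marks toxicity.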
# [2] = qHTS drug screen for cell cycle checkpoint inhibitors in PARPi-resistant BRCA-mutant ovarian cancer cell lines. (AID 1963452); conditions: PEO1/OlaR viability, CellTiter-Glo luminescence, 96 h
# In short: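 PEO1, PEO4 and PEO1/OlaR ovarian cancer cells, 600 per well, exposed 96 h at 37C to a dilution series. Viability read by CellTiter-Glo luminescence, normalized to DMSO and empty wells; activity summarized as Z-AUC.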
# [3] = target: Nicotinamide N-methyltransferase (Homo sapiens) (UniProt P40261); assay: Confirmatory Screen for Target Class Profiling of Small Molecule Inhibitors of Methyltransferases (AID 1745852); conditions: MTase-Glo luminescence, SAH detection, recombinant enzyme; measured here: NNMT inhibition potency
# [4] = target: Phenylethanolamine N-methyltransferase (Homo sapiens) (UniProt P11086); assay: as above; conditions: MTase-Glo luminescence, SAH detection, recombinant enzyme; measured here: PNMT inhibition potency
# [5] = qHTS assay for small molecule antagonists of peroxisome proliferator-activated receptor delta signaling (AID 588535); conditions: HEK293T PPARd-UAS-bla, beta-lactamase FRET ratio, 18 h; 460 nm channel;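 also: cells co-treated with a PPAR-delta agonist as stimulator during compound exposure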
# In short: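 GeneBLAzer PPAR-delta-UAS-bla HEK293T cells in medium with 2% charcoal/dextran FBS were preincubated 5 hrs at 37 C, then given compounds, incubated 18 hrs at 37 C, and read by CCF4 beta-lactamase fluorescence; IC50 from Hill fits.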
# [6] = qHTS assay for small molecule antagonists of peroxisome proliferator-activated receptor gamma signaling (AID 588537); conditions: HEK293 PPARg-UAS-bla, beta-lactamase ratio, antagonist mode; measured here: W460 blue channel
# In short: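 PPAR-gamma-UAS-bla HEK293 cells (3000/well, 1% charcoal/dextran-stripped FBS) were preincubated 6-6.5 h at 37 C, given titrated compounds, then stimulated with 50 nM rosiglitazone for 16 h. Beta-lactamase activity was read with CCF4 dye; IC50 came from Hill fits.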
# [7] = qHTS assay for small molecule agonists of retinoid X receptor alpha signaling (AID 588544); conditions: HEK293T RXRa-UAS-bla, beta-lactamase reporter, 18 h; 530 nm emission
# [8] = qHTS assay for small molecule antagonists of retinoid X receptor alpha signaling (AID 588546); conditions: HEK293T RXRa-UAS-bla, beta-lactamase ratio, antagonist mode; measured here: W530 green channel, cytotoxicity proxy;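 also: cells stimulated with 9-cis-retinoic acid as agonist; % is scaled to controls: 0 for no effect and ±100 for the full control effect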
# In short: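 Beta-lactamase reporter inhibition, read as CCF4 fluorescence ratio (ex 405, em 460/530 nm) after 2 h at RT. HEK293T UAS-bla cells, 2500/well, were stimulated with 9-cis-RA at 500 or 100 nM final alongside test compound for 18 h at 37 C.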
# [9] = qHTS for identification of novel therapeutic agents for treatment of microphthalmiaassociated transcription factor (MiT) renal cell carcinoma (RCC) (AID 1963991); conditions: TFE3-RCC viability, CellTiter-Glo, 48 h
# In short: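 Three TFE3-fusion RCC cell lines (UOK109, UOK124, UOK145), 500 cells/well, were exposed to the 1912-compound MIPE 4.0 library for 48 hours at 37 C. Viability was read by CellTiter-Glo luminescence, normalised to DMSO (100%) and empty wells (0%), with 11-concentration curve fits.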
# [10] = day 7, measured here: worm number
# [11] = day 7, measured here: worm area, day 3
# [12] = measured here: PEO1 parental viability
# [13] = day 7, measured here: worm number, day 3
# [14] = measured here: UOK124 cell viability
# [15] = measured here: UOK145 cell viability
smiles,measurement,setting,value
C[C@@H](N)C(=O)N[C@@H](CO)C(=O)N[C@H](C(=O)N[C@H](C(=O)N[C@H](C(=O)N[C@@H](CC(N)=O)C(=O)N[C@@H](Cc1ccc(O)cc1)C(=O)N[C@H](C(N)=O)[C@@H](C)O)[C@@H](C)O)[C@@H](C)O)[C@@H](C)O,AC50,[1]; [10],"8160 nM [falling, partial curve, poor fit]"
same,AC50,[1]; [11],"14500 nM [falling, partial curve, poor fit]"
NC1=NC(=O)N2CC12 (centres undefined),AC50,[2]; [12],"2750 nM [rising, partial curve, poor fit]"
C[C@H]1CCC/C=C/C2C[C@H](O)C[C@H]2[C@H](O)/C=C/C(=O)O1 (some centres undefined),AC50,[1]; [10],"8.2 nM [falling, full curve, poor fit]"
O=C(NCCCNc1nc(Nc2ccc(N3CCOCC3)cc2)ncc1C1CC1)C1CCC1,AC50,[1]; [10],"7270 nM [falling, partial curve]"
same,AC50,[2]; [12],"1100 nM [falling, full curve]"
same,AC50,[2]; measured here: PEO4 viability,"8710 nM [falling, partial curve]"
Nc1ncnc2c1ccn2[C@@H]1O[C@H](CO)[C@@H](O)[C@H]1O,AC50,[1]; [10],"9160 nM [falling, partial curve, poor fit]"
same,AC50,[1]; [11],"29000 nM [falling, single point]"
same,AC50,[1]; [13],"16300 nM [falling, partial curve]"
C#C[C@]1(O)CC[C@H]2[C@@H]3CC[C@H]4Cc5nc6nc7ccccc7n6cc5C[C@]4(C)[C@H]3CC[C@@]21C,IC50,[3],"24100 nM [falling, partial curve, poor fit]"
same,IC50,[4],"24100 nM [falling, partial curve]"
COc1ccc(-c2cc([C@H]3CN4CC[C@H]3C[C@@H]4CN)nc(C)n2)cc1OC,IC50,[3],"55500 nM [falling, single point]"
Cc1nnc2n1-c1sc(CCc3ccc(CC(C)C)cc3)cc1C(c1ccccc1Cl)=NC2C (centres undefined),IC50,[3],"21500 nM [falling, partial curve]"
C[C@@H]1C[C@@H]([C@H](O)CC2CC(=O)NC(=O)C2)C(=O)[C@@H](C)C1,max response,[5],-120%
same,AC50,[6],"17.8 µM [falling, partial curve, poor fit] and 1 µM [falling, full curve]"
same,max response,[7],1.98% and -13.5%
same,max response,[8],-10.1% and -11% and -8.01%
same,AC50,[1]; [11],"70800 nM [falling, single point]"
same,AC50,[1]; [13],"56200 nM [falling, single point]"
same,AC50,[9]; [14],"118 nM [falling, full curve]"
same,AC50,[9]; [15],"187 nM [falling, full curve]"
O=C(Nc1ccccc1F)N[C@@H]1N=C(c2ccccc2)c2ccccc2NC1=O,AC50,[1]; [10],"25800 nM [falling, single point]"
same,AC50,[1]; [13],"11500 nM [falling, partial curve, poor fit]"
O=C(CBr)N1CC([N+](=O)[O-])([N+](=O)[O-])C1,AC50,[2]; [12],"7.1 nM [falling, full curve, poor fit]"
same,AC50,[2]; measured here: PEO4 viability,"11.2 nM [falling, full curve, poor fit]"
C[C@@]12OC(=O)[C@]1([C@@H](O)[C@@H]1C=CCCC1)NC(=O)[C@H]2CCCl,AC50,[9]; [14],"93.5 nM [falling, full curve]"
same,AC50,[9]; [15],"93.5 nM [falling, full curve]"
CC(C)[C@]12O[C@H]1[C@@H]1O[C@]13[C@]1(O[C@H]1C[C@H]1C4=C(CC[C@@]13C)C(=O)OC4)[C@@H]2O,AC50,[2]; [12],"38.9 nM [falling, full curve]"
same,AC50,[2]; measured here: PEO4 viability,"27.5 nM [falling, full curve]"
C[C@H](Nc1ncnc2nc[nH]c12)c1nc2ccc(F)cc2c(=O)n1-c1ccccc1,AC50,[2]; [12],"5490 nM [falling, full curve, poor fit]"
NC(=O)[C@@H](CC1CC1)[C@@H](CCC(F)(F)F)C(=O)N[C@H]1N=C(c2ccccc2)c2cccc(F)c2NC1=O,AC50,[2]; [12],"24500 nM [rising, single point]"
COc1cc([C@@H]2c3cc4c(cc3[C@@H](O)C3COC(=O)C32)OCO4)cc(OC)c1O (some centres undefined),AC50,[2]; [12],"616 nM [falling, full curve]"
same,AC50,[2]; measured here: PEO4 viability,"110 nM [falling, full curve]"
same,AC50,[9]; [14],"18.7 nM [falling, full curve]"
same,AC50,[9]; [15],"23.5 nM [falling, full curve]"
CO/C1=C/C(C)=C\[C@@H](C)[C@@H](O)[C@@H](C)C/C(C)=C\C=C/[C@H](OC)[C@@H]([C@@H](C)[C@@H](O)[C@H](C)[C@@]2(O)C[C@@H](O)[C@H](C)[C@@H](C(C)C)O2)OC1=O,AC50,[2]; [12],"8.2 nM [falling, full curve]"
same,AC50,[2]; measured here: PEO4 viability,"10.3 nM [falling, full curve]"
C/C(=C\c1csc(C)n1)[C@@H]1C[C@@H]2O[C@@H]2CCC[C@H](C)[C@H](O)[C@@H](C)C(=O)C(C)(C)[C@@H](O)CC(=O)O1,AC50,[2]; [12],"15.5 nM [falling, full curve]"
same,AC50,[2]; measured here: PEO4 viability,"11 nM [falling, full curve]"
CCOc1ccccc1-n1c(C(C)N2CCN(C(=O)COc3ccc(Cl)cc3)CC2)nc2ccccc2c1=O (centres undefined),AC50,[2]; [12],"7760 nM [falling, partial curve]"
same,AC50,[2]; measured here: PEO4 viability,"11000 nM [falling, partial curve]"
C/C=C(\C)C(=O)N[C@@H](c1ccccc1)[C@@H](O)C(=O)O[C@H]1C[C@@]2(O)[C@@H](OC(=O)c3ccccc3)[C@@H]3[C@]4(OC(C)=O)CO[C@@H]4C[C@H](O)[C@@]3(C)C(=O)[C@H](OC(C)=O)C(=C1C)C2(C)C,AC50,[2]; [12],"13.8 nM [falling, full curve]"
same,AC50,[2]; measured here: PEO4 viability,"8.7 nM [falling, full curve]"
